Assay results: patent US20260102485A1 (CEDARS SINAI MEDICAL CENTER, published 2026)
Results are given in words; binding and its absence hold for the method and conditions named. Some entries that bind do so weakly or less than the wild type.

Assays:
[1] = molecular target: T1, human TL1A (hTL1A) antigen (human, UniProt O95150 58-251, limits assumed); test: summary statement (soluble TL1A)
T1 sequence (looked up): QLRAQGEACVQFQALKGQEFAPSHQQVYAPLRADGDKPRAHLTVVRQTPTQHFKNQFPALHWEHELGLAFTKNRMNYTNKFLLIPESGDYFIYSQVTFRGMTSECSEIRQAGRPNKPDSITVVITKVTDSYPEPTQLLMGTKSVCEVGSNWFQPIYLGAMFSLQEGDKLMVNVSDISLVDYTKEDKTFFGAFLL

murine TL1A [2] = molecular target: T2, murine TL1A (murine, UniProt Q5UBV8 94-252, limits assumed); test: MSD plates coated with murine TL1A
T2 sequence (looked up): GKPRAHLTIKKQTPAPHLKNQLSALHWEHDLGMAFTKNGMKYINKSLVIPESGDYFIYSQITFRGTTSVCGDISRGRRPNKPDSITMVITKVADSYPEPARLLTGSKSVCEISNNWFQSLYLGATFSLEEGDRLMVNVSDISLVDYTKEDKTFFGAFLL

murine TL1A [3] = molecular target: T2, murine TL1A; test: MSD electrochemiluminescence plate assay, antibody titrated on plates coated with murine TL1A
Description: Anti-human TL1A monoclonal antibodies 9E12E5 and 5C3D11 neutralize the activity of human TL1A in vitro. […] MSD plates were coated with murine TL1A and incubated with various concentrations of 5C3D11 or 9E12E5 to evaluate the ability of the antibody to recognize murine TL1A, as shown in FIG. 6. Human TL1A was included as a positive control. 5C3D11 recognizes murine TL1A in a concentration dependent manner. The binding profile of both the 5C3D11 and 9E12E5 antibodies were assessed using a TL1A transfected HEK293 cell line and compared to the untransfected parental HEK293 cell line. Fluorescent staining of the anti-TL1A antibodies in TL1A expressing HEK293 cells is compared to the untransfected parental HEK293 cells, as shown in FIG. 7.

[4] = molecular target: T1, human TL1A (hTL1A) antigen; test: MSD electrochemiluminescence plate assay, antibody titrated on coated human TL1A (positive control)

Measured: binding

B1: 5C3D11 (antibody, V domains shown)
VH: EVQLQQSGAELVKPGASVKLSCTASGFDIQDTYMHWVKQRPEQGLEWIGRIDPASGHTKYDPKFQVKATITTDTSSNTAYLQLSSLTSEDTAVYYCSRSGGLPDVWGAGTTVTVSS
VL: QIVLSQSPAILSASPGEKVTMTCRASSSVSYMYWYQQKPGSSPKPWIYATSNLASGVPDRFSGSGSGTSYSLTISRVEAEDAATYYCQQWSGNPRTFGGGTKLEIK
notes: Mouse hybridoma monoclonal antibody; also called 684842-3; anti-TL1A antibody 5C3D11
binds: all assays above

B2: 9E12E5 (antibody, V domains shown)
VH: QVHLQQSGPELVKPGASVKLSCKASGYTFTKYDINWVRQRPEQGLEWIGWIFPGDGRTDYNEKFKGKATLTTDKSSSTAYMEVSRLTSEDSAVYFCARYGPAMDYWGQGTSVTVAS
VL: DVLMTQTPLSLPVSLGDQASISCRSSQTIVHSNGDTYLDWFLQKPGQSPKLLIYKVSNRFSGVPDRFSGSGSGTDFTLKISRVEAEDLGVYYCFQGSHVPYTFGGGTKLEIK
notes: Mouse hybridoma monoclonal antibody; also called 684842-6; anti-TL1A antibody 9E12E5
binds: [1] | [4]
